Test results as given in patent US10702506B2, “Small molecule inhibitors of pendrin ion exchange and pharmaceutical compositions” (THE REGENTS OF THE UNIVERSITY OF CALIFORNIA, priority 2016, dated 2020).
At least one structure is not confirmed: it was looked up by name or label, or the drawing left a doubt.

How the values were obtained:
mice (CD-1 and C57B/6) = test: Renal function in mice after pendrin inhibitor alone; format: in vivo
NKCC1 (Slc12a2) = molecular target: T1, NKCC1 (Slc12a2) (Homo sapiens, UniProt P55011); test: NKCC1 YFP-V163S quenching assay in FRT cells; format: cell-based; conditions: 25 μM
T1 construct: host or cells: FRT cells with YFP-V163S
T1 sequence (P55011 1-1212): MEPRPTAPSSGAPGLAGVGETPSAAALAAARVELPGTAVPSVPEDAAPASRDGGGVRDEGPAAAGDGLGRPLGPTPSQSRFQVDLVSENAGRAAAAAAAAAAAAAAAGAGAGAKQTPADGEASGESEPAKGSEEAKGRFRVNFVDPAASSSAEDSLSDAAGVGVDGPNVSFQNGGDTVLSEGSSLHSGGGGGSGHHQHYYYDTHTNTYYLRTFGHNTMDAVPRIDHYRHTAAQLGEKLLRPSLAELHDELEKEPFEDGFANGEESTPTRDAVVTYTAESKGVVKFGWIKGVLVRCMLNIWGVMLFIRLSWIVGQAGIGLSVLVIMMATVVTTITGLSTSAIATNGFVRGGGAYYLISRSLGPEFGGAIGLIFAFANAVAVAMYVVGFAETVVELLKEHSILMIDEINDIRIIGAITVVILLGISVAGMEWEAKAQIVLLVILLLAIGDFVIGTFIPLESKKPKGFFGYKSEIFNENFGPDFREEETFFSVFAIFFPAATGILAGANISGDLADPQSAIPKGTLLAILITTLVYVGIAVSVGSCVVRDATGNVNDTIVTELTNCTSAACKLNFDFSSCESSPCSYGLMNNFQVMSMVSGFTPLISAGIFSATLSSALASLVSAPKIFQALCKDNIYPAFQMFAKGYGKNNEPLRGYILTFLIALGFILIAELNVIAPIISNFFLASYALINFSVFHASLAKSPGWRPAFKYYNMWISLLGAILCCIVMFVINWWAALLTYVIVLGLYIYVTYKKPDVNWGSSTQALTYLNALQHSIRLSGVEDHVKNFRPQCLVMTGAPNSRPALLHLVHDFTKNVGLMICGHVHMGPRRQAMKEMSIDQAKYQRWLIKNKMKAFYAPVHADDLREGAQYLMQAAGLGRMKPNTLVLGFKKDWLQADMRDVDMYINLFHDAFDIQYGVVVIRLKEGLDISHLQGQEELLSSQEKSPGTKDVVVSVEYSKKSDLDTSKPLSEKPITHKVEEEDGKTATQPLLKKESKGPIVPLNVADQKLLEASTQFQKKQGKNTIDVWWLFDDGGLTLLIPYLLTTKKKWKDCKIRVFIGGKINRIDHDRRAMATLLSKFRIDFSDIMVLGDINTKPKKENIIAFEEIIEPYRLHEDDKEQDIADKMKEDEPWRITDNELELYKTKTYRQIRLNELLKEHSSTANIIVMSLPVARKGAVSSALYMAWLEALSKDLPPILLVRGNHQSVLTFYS

In the case of Cc1n[nH]c(-c2cc(S(=O)(=O)NC3CCCc4ccccc43)c(C)s2)c1C (stereo not drawn) [PDSinh-C01], the “3-h urine osmolality versus vehicle” value (mice (CD-1 and C57B/6); ip, two strains) is reported as “similar”, the “3-h urine volume versus vehicle” value (mice (CD-1 and C57B/6); ip, two strains) is reported as “similar” and the “3-h urinary salt excretion” value (mice (CD-1 and C57B/6); up to 50 mg/kg ip) is reported as “nor did it affect”. For the same compound, the blood gas values (mice (CD-1 and C57B/6); up to 50 mg/kg ip) was “did not significantly change”, the “urine pH” value (mice (CD-1 and C57B/6); up to 50 mg/kg ip) was “did not significantly change” and the “inhibition of NKCC1 (Slc12a2) transport activity” value (NKCC1 (Slc12a2)) was “did not significantly inhibit”.
